No constants are given. Whether binding was seen depends on the method and setting. Binding seen in cells or lysates may run through a third protein. These calls come from enrichment with a bait or labelling near it, and not all partners need be listed. No binding means not detected with the bait.
B1: RecA, M. smegmatis (protein, UniProt Q59560 1-349)
chain: MAQQAPDREKALELAMAQIDKNFGKGSVMRLGEEVRQPISVIPTGSISLDVALGIGGLPRGRVIEIYGPESSGKTTVALHAVANAQAAGGIAAFIDAEHALDPEYAKKLGVDTDSLLVSQPDTGEQALEIADMLVRSGALDIIVIDSVAALVPRAEIEGEMGDSHVGLQARLMSQALRKMTGALNNSGTTAIFINQLREKIGVMFGSPETTTGGKALKFYASVRLDVRRIETLKDGTDAVGNRTRVKVVKNKVSPPFKQAEFDILYGQGISREGSLIDMGVEHGFIRKSGSWFTYEGEQLGQGKENARKFLLENTDVANEIEKKIKEKLGIGAVVTAEADDVLPAPVDF
B2: RecC, M. smegmatis (protein, UniProt A0QS30 1-1085)
chain: MALHLHRAERTDLLADGLAALLSDPLPDPFATELVLVPAKGVERWLSQRLSNRLGVCAAVEFRNPRSLIAELTGTADDDPWSPDAMVWPLLGVIDESLDEPWCATLATHLGHFEMGEEYELRQGRRYAVARRLAGLFASYARQRPQLLVDWDGLPDDLAWQKALWQALCERIDADPPHIRHAKTLVQLHESPTDLPQRLSLFGHTRLPATEVELLTALATHHDLHLWLPHPSDTLWQALSTRKGPLPRREDTSHRDVGHPLLATLGRDLREMQRLLPEPDTDEFRGRSEYPDTLLGWLQSDIAADAVRPQGRHHRREDRSIQVHSCHGPSRQIDVLREVLLGLLADDPTLEPRDILVMCPDIETYAPLITAGFGLGDVVPRTRGAHINLSAHPAHKLRVRLADRALVQTNPLLAVAAQLLALAGGRATASEVLNLAESAPVRARFGFTDDDLDAITAWTREANIRWGFDQEHRRPYGVEFLHNTWRFGIDRVLAGVAMSDDSHAWLGTTLPLDDVSSNRVELAGRFADFVEKLRRTVDQLSGTRPLHEWLDALTAGIDALALADEDWPAAQMQREFAEITARAGDTATSLRLADVRALLDRHLAGRPTRANFRTGTLTVCTMVPMRSVPHRVVCLVGLDDGVFPRLGAVDGDDALARDPMTGERDIRSEDRQLLLDAILAATQTLVITYTGANEYSGQARPPAVPLAELIDTLKITTEDSALDVLTRHPLQPFDKRNVIPGALVPDEPFTFDQTALVAARASSGERAMRPAFFSDPLPPPLPDDVALEDLLNFFKDPVKGFFRALDYTLPWDVEGVSDVMPVDIDALEEWTVGDRMLSDILRGMTPAAAQQAEWRRGTLPPGQLGWRRAIALRDQCALLAAEALGFRDTDGQAYDVDIDLGGGRRLTGTVSPVFGDRLVSVTYSKLGGKHLLQSWIPLLALAAGYPDRDWLAVCIGRPARGTTPRVEGLGGPDNPVDLLADLVAIYDAGRREPLPLPVKTSYAWAEARHCGDDPEQKAGFRWRSGRYPGEDAEPAHVRAWGRDAWLRDLMQPLRPGEEFEGETHRLGAYSSRLWLPLLRAERPVR
B3: RecD, M. smegmatis (protein, UniProt A0QS28 1-554)
chain: MSLLEAFAEILEPADVHVAQRLTVLADEPDASVELAVALAVRALRGGSVCVDLRSVAGQVELPDLPWPDPDAWLAALAASPLLGQPPVLRLFGDLLYLDRYWLEEQQVCDDVLALVSARPGGAVPDVSRLFGAGFEEQRAAAKVALSQGLTVLTGGPGTGKTTTVARLLALLAEQAALAGKPSPRIALAAPTGKAAARLQEAVQLEIDQLDLIERRRLTGLHATTLHRLLGPRPDTSSRFRHHRANRLPHDVIVVDETSMVSLTMMARLLEAVRPQTRLVLVGDPDQLASVEAGAVLADLVEGLGSRGVAELKTSHRFGESIGALASAIRTGDADAALAVLAAGGEHIEWVHEDPVEQLREVVVPHAMRLRQAAILGDQREALATLDEHRLLCAHRRGPAGVDHWNRQVQRWLGEETGEPLWGSWYVGRPILVTANDYGLKLYNGDTGVVVATPDGMRAVIGDAGTFATGRLTDVETMHAMTIHKSQGSQADEVTVLLPSEDSRLLTRELFYTAVTRAKTRVRVVGAEAEVRAAIERQAVRATGLRKRLRPAGV
B4: RadA (DNA repair protein), M. smegmatis (protein, UniProt A0R563 1-466)
chain: MAGSKIRSQYRCSECQHVAPKWVGRCANCGTWGTVDEVAVLAGNNKLNGAARRSVAPTSPAVPITSIDPGVTRHYPTGVSELDRVLGGGLVAGSVTLLAGDPGVGKSTLLLEVANRWAHSGKRALYLSGEESAGQIRLRAERTGCTHDQVYLAAESDLQIALGHIDEVKPSLVVVDSVQTMSTTEADGVTGGVTQVRAVTTSLTAYAKAAVGDPAVAMILVGHVTKDGAIAGPRSLEHLVDVVLHFEGDRASSLRMVRGVKNRFGAADEVGCFQLHDNGIECVSDPSGLFLDQRPLAVPGTAVTVTLDGKRPMIGEVQALVSPPAGPPRRAVSGIDSARAAMIGAVLQTRCRMPINSNDLYLSTVGGMRLTDPSADLAVALAIASAYFDIAMPMKAIAIGEVGLAGDLRRVTGMDRRLSEAARLGFTTAVVPPGVTSAPAGLKVVAADNIRAAVQTMREIAIAGAQ
B5: RuvC (Holliday junction resolvase), M. smegmatis (protein, UniProt A0QWH4 1-185)
chain: MRVMGVDPGLTRCGLSMIESGKGRQVIALDVDVVRTPADTPLQKRLLTISDAAEHWMDTHRPDVIAIERVFANQNANTAMGTAQAGGVIALAAAKRDIEVHFHTPSEVKAAVTGSGRADKSQVTEMVTRILALQAKPTPADAADALALAICHCWRAPMIARMAAAEAMAEEQRRKFQAKIKAARG
B6: substrate adaptor SmpB, M. smegmatis (protein, UniProt A0QU63 1-161)
chain: MTKKSASSNNKVVATNRKARHNYTILDTYEAGIVLMGTEVKSLREGQASLADAFATVDDGEIWLRNVHIAEYHHGTWTNHAPRRNRKLLLHRKQIDNLIGKIRDGNLTLVPLSIYFTDGKVKVELALARGKQAHDKRQDLARRDAQREVIRELGRRAKGKI

By UniProt entry, the sequences of proteins in these tests, tags left out. Where a name states a change or a piece, a line headed by the entry shows the natural chain unless it says otherwise.
UniProt P9WPB9, whole entry, stated change not applied: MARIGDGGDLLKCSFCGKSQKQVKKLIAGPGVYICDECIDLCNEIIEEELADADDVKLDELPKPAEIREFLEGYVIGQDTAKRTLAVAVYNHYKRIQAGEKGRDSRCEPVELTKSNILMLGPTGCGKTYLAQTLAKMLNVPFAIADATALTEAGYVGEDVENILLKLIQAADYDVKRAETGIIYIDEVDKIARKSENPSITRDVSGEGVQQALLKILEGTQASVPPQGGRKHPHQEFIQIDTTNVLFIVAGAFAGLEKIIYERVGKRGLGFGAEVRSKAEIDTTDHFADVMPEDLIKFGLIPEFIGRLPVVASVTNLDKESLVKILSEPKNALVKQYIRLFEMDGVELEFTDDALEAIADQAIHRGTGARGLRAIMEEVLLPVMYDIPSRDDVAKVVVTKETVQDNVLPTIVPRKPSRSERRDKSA

target: N-terminally 6×His-tagged ClpX (His6ClpX) from M. tuberculosis, overproduced in M. smegmatis (M. tuberculosis) (UniProt P9WPB9); experiment: affinity purification with mass spectrometry

Question: For B1, which binding is on record?
Answer: The binding was “binds”.

Question: Which binding does the source give for B2 here?
Answer: The binding was “binds”.

Question: How did the binding turn out when B3 was run?
Answer: The binding was “binds”.

Question: How did the binding turn out when B4 was run?
Answer: The binding was “binds”.

Question: How did the binding turn out when B5 was run?
Answer: The binding was “binds”.

Question: B6 was tested. Which binding did it give?
Answer: Its binding is “no binding”.

From paper PMC7847540
